Results published in patent EP3255116A1, “COMPOSITIONS COMPRISING A FLUOROOLEFIN” (The Chemours Company FC, LLC, priority 2005, dated 2006).

Test: Kinematic viscosity of lactone compatibilizers
Format: physicochemical
Settings: at 40°C
Protocol: Lactone compatibilizers generally have a kinematic viscosity of less than about 7 centistokes at 40°C. For instance, gamma-undecalactone has kinematic viscosity of 5.4 centistokes and cis-(3-hexyl-5-methyl)dihydrofuran-2-one has viscosity of 4.5 centistokes both at 40°C. Lactone compatibilizers may be available commercially or prepared by methods as described in U. S. patent application 10/910,495 filed August 3, 2004, incorporated herein by reference.

Compound `CCCCCCCC1CCC(=O)O1` (stereo not shown) [gamma-undecalactone] has a kinematic viscosity of 5.4 centistokes.
